Experimental data as given in US20210315887A1, “METHODS OF ADMINISTERING THERAPY” (GALAPAGOS NV, priority 2018, published 2021).
The name of at least one read-out is uncertain.

Assay: Phase I open-label drug-drug interaction study: single-dose plasma pharmacokinetics of compound 1 before and after repeat doses of rifampicin
Type: in vivo, human
Details: statistical analysis Day 12 vs Day 1
Method: A phase I, open-label, non-randomized, drug-drug interaction study in healthy male subjects is done to evaluate the impact of repeat doses of rifampicin, on the single-dose pharmacokinetics (PK) of compound 1 as well as to evaluate the safety and tolerability of a single dose of compound 1 administered before or after oral doses of rifampicin.
Eighteen healthy male subjects received a single oral dose of 600 mg compound 1 on Day 1. From Days 2 to 11, 600 mg rifampicin was administered once daily (q.d.) to all subjects for 10 consecutive days. On Day 12, subjects received a single oral dose of 600 mg of compound 1 (see Table 1). A follow-up visit is conducted between days 15 and 18. […]
Plasma concentrations were measured using validated liquid chromatography with tandem mass (LC/MS-MS) spectrometry methods with a limit of quantification of 1.00 ng/mL for compound 1, 20.0 mg/mL for cholesterol and 5.00 ng/mL for 4-β-hydroxycholesterol. […]
Plasma concentrations and PK parameters of compound 1 are listed by day (Day 1: compound 1 before multiple rifampin doses; Day 12: compound 1 after multiple rifampin doses) for each subject. Descriptive statistics are calculated by day for the plasma concentration and PK parameters. […]
As tmax is a discrete variable dependent on selected blood sampling times, day effect was assessed using a non-parametric test (Wilcoxon's signed-rank test).

SMILES: CCc1nc2c(C)cc(N3CCN(CC(=O)N4CC(O)C4)CC3)cn2c1N(C)c1nc(-c2ccc(F)cc2)c(C#N)s1 [Compound 1]
- Day effect (rifampin) on Cmax and AUCs: significant day effect
